Measurements reported in PMC10163288.
The list shows a part of the results.

B1: il2ra_site2_3nfp_sap_21_mot_HHH_b2_08209_000000146_0001_1_18_H_._5511cb2176c827d1feb3066af2f534d5_0001_af2_0001_0000100005_0000001_1_0001 (protein)
chain: SSSSDLEEEVERLLEEAEHIEDPEELERLLFEAASLAAEANDRELYAAAMEIMWELIEKNSSSSS
B2: il2ra_site1_3nfp_sap_16_mot_HHH_b1_07204_af2_000000238_0001_41_55_H_._HHH_b1_06952_af2_0001_0000800009_0000001_0_0001_af2pred_0001_af2pred_1_swapped (protein)
chain: TAAEKLIRLAVEQGSKRVIKKIVEDAEKNLGDPEKAERLVIELLERALNIPPEEAKELVEELLER
B3: il2ra_site2_2erj_normal_mot_HHH_b1_00261_000000083_0001_43_58_H_._HHH_b2_00580_af2_0001_0000200008_0000001_0 (protein)
chain: SSSSDEEAEEVSRILVEVLELFENGNEEEARELLEELLEKLKENNNEIAARYVEYALRIFSSSSS
B4: il2ra_site2_3nfp_normal_mot_HHH_b1_00660_af2_000000090_0001_40_57_H_._HHH_b2_07007_0001_0000300027_0000001_0_1_af2pred_0001_1_af2pred_swapped (protein)
chain: SSSSDEEEARELLEEAKRLAEEGNPEEARKLLEEASKIAVESNNHELFALITEVLEKVLKLSSSS
B5: il2ra_site2_2erj_sap_14_mot_HHH_b2_05722_000000033_0001_22_38_H_._HHH_b1_00927_0001_0001900021_0000001_0_0001 (protein)
chain: SSSSSDRVREVYEIVLRLAREFNLDAEQIVALIERAEELLERGVSEEEIEELLEEQAKRLSSSSS
B6: il2ra_site1_1z92_sap_16_mot_ems_3hM_2197_000000181_0001_1_19_H_._HHH_b1_04507_af2_0001_0000800028_0000001_0_0001 (protein)
chain: DEEEAEELLREILKEHGNEEVLERDLERTERLFGDPKEALFALINAALQIHGDPRLKEALELVRK
B7: il2ra_site2_3nfp_normal_mot_HHH_b2_05281_000000198_0001_39_56_H_._HHH_b1_02402_0001_0000900024_0000001_0 (protein)
chain: SSSSDEEEIRELIQRAREALEEGDRHRAFFIVAEAAFIAWQNNNEEALRELSQLALEIFERSSSS
B8: il2ra_site1_3nfp_normal_mot_22aa8d8ad8dce7f663ea8fa348a52261_0001_000000276_0001_17_32_H_._a3b61943b7af24100a309c62926c5c00_0001_0001_0000100005_0000001_0_af2pr … (protein)
chain: SLEEKFEKVAREVGLPPVDIRAVKRIIEEARERGIPPERIIEALRDLARALRDPDLEEVVELLER
B9: il2ra_site2_2erj_normal_mot_HHH_b1_08185_000000063_0001_41_55_H_._HHH_b1_07623_af2_0001_0000600036_0000001_0 (protein)
chain: SSSSSDTVEVAVELAEEAYEQGDRAALELILRYLELSLKDTGDPEVEKAYERVEELLERLSSSSS
B10: il2ra_site2_2erj_normal_mot_HHH_b1_00941_000000060_0001_45_58_H_._HHH_b2_00695_0001_0000200006_0000001_0_af2pred_0001_af2pred (protein)
chain: SSSSSSDVEERVKELLEEAEKIRDLKEALEVLQEASRLAAERDDEELLELIDEVLRRLSSSSSSS

molecular target: il2ra, P01589; assay: yeast display titration

Apparent Kd, inactive:
B1 no binding seen
B2 no binding seen
B3 no binding seen
B4 no binding seen
B5 no binding seen
B6 no binding seen
B7 no binding seen
B8 no binding seen
B9 no binding seen
B10 no binding seen
